# Laboratory results: PMC9663578, “A fluorogenic probe for predicting treatment response in non-small cell lung cancer with EGFR-activating mutations” (Nature Communications, 2022)
# Test system: biopsy samples from NSCLC patients
# Assay: HX103-based multicolor FACS, biopsy samples
# Format: cell-based, human
# Parameters: AUC of ROC, HX103(+) vs EGFR-activating mutations / AUC of ROC, EGFR(+)HX103(+) vs EGFR-activating mutations / AUC of ROC, EGFR(+)HX103(+) vs therapy response to EGFR-TKI / AUC of ROC, HX103(+) vs therapy response to EGFR-TKI: unit not given beside the values
# Settings: for Area under the ROC curve EGFR(+)HX103(+) (%) / Area under the ROC curve HX103(+) (%): Biopsy samples
structure (smiles),measurement,setting,value
COc1cc2c(Nc3ccc(F)c(Cl)c3)ncnc2cc1OCCCNc1ccc(S(=O)(=O)N(C)C)c2nonc12 [HX103],"AUC of ROC, EGFR(+)HX103(+) vs therapy response to EGFR-TKI",13 evaluable patients,1.0
same,"AUC of ROC, HX103(+) vs therapy response to EGFR-TKI",13 evaluable patients,1.0
same,"AUC of ROC, EGFR(+)HX103(+) vs EGFR-activating mutations",31 biopsy samples,0.93
same,"AUC of ROC, HX103(+) vs EGFR-activating mutations",31 biopsy samples,0.93
same,Area under the ROC curve EGFR(+)HX103(+) (%),CR/PR vs SD/PD,1
same,Area under the ROC curve HX103(+) (%),CR/PR vs SD/PD,1
same,Area under the ROC curve EGFR(+)HX103(+) (%),Mutation vs WT,0.9292
same,Area under the ROC curve HX103(+) (%),Mutation vs WT,0.9292
same,"sensitivity, EGFR(+)HX103(+) vs EGFR mutations","cut-off 30.1%, 11/15",73.3%
same,"specificity, EGFR(+)HX103(+) vs EGFR mutations","cut-off 30.1%, 16/16",100%
same,"sensitivity, EGFR(+)HX103(+) vs therapy response to EGFR-TKI",previous cut-off points,100%
same,"sensitivity, HX103(+) vs therapy response to EGFR-TKI",previous cut-off points,100%
same,"specificity, EGFR(+)HX103(+) vs therapy response to EGFR-TKI",previous cut-off points,100%
same,"specificity, HX103(+) vs therapy response to EGFR-TKI",previous cut-off points,100%
